Source: US20230242871A1, “GENERATION OF PRIMORDIAL GERM CELLS AND METHODS OF USING THE SAME” (The Board of Trustees of the Leland Stanfor Junior …, priority 2020, published 2023)

B1: CD131 (protein, UniProt P32927 17-897, looked up)
Cytokine receptor common …: WERSLAGAEETIPLQTLRCYNDYTSHITCRWADTQDAQRLVNVTLIRRVNEDLLEPVSCDLSDDMPWSACPHPRCVPRRCVIPCQSFVVTDVDYFSFQPDRPLGTRLTVTLTQHVQPPEPRDLQISTDQDHFLLTWSVALGSPQSHWLSPGDLEFEVVYKRLQDSWEDAAILLSNTSQATLGPEHLMPSSTYVARVRTRLAPGSRLSGRPSKWSPEVCWDSQPGDEAQPQNLECFFDGAAVLSCSWEVRKEVASSVSFGLFYKPSPDAGEEECSPVLREGLGSLHTRHHCQIPVPDPATHGQYIVSVQPRRAEKHIKSSVNIQMAPPSLNVTKDGDSYSLRWETMKMRYEHIDHTFEIQYRKDTATWKDSKTETLQNAHSMALPALEPSTRYWARVRVRTSRTGYNGIWSEWSEARSWDTESVLPMWVLALIVIFLTIAVLLALRFCGIYGYRLRRKWEEKIPNPSKSHLFQNGSAELWPPGSMSAFTSGSPPHQGPWGSRFPELEGVFPVGFGDSEVSPLTIEDPKHVCDPPSGPDTTPAASDLPTEQPPSPQPGPPAASHTPEKQASSFDFNGPYLGPPHSRSLPDILGQPEPPQEGGSQKSPPPGSLEYLCLPAGGQVQLVPLAQAMGPGQAVEVERRPSQGAAGSPSLESGGGPAPPALGPRVGGQDQKDSPVAIPMSSGDTEDPGVASGYVSSADLVFTPNSGASSVSLVPSLGLPSDQTPSLCPGLASGPPGAPGPVKSGFEGYVELPPIEGRSPRSPRNNPVPPEAKSPVLNPGERPADVSPTSPQPEGLLVLQQVGDYCFLPGLGPGPLSLRSKPSSPGPGPEIKNLDQAFQVKKPPGQAVPQVPVIQLFKALKQQDYLSLPPWEVNKPGEVC
B2: CD148 (protein, UniProt Q12913 36-1337, looked up)
Receptor-type …: AGGTPSPIPDPSVATVATGENGITQISSTAESFHKQNGTGTPQVETNTSEDGESSGANDSLRTPEQGSNGTDGASQKTPSSTGPSPVFDIKAVSISPTNVILTWKSNDTAASEYKYVVKHKMENEKTITVVHQPWCNITGLRPATSYVFSITPGIGNETWGDPRVIKVITEPIPVSDLRVALTGVRKAALSWSNGNGTASCRVLLESIGSHEELTQDSRLQVNISGLKPGVQYNINPYLLQSNKTKGDPLGTEGGLDASNTERSRAGSPTAPVHDESLVGPVDPSSGQQSRDTEVLLVGLEPGTRYNATVYSQAANGTEGQPQAIEFRTNAIQVFDVTAVNISATSLTLIWKVSDNESSSNYTYKIHVAGETDSSNLNVSEPRAVIPGLRSSTFYNITVCPVLGDIEGTPGFLQVHTPPVPVSDFRVTVVSTTEIGLAWSSHDAESFQMHITQEGAGNSRVEITTNQSIIIGGLFPGTKYCFEIVPKGPNGTEGASRTVCNRTVPSAVFDIHVVYVTTTEMWLDWKSPDGASEYVYHLVIESKHGSNHTSTYDKAITLQGLIPGTLYNITISPEVDHVWGDPNSTAQYTRPSNVSNIDVSTNTTAATLSWQNFDDASPTYSYCLLIEKAGNSSNATQVVTDIGITDATVTELIPGSSYTVEIFAQVGDGIKSLEPGRKSFCTDPASMASFDCEVVPKEPALVLKWTCPPGANAGFELEVSSGAWNNATHLESCSSENGTEYRTEVTYLNFSTSYNISITTVSCGKMAAPTRNTCTTGITDPPPPDGSPNITSVSHNSVKVKFSGFEASHGPIKAYAVILTTGEAGHPSADVLKYTYEDFKKGASDTYVTYLIRTEEKGRSQSLSEVLKYEIDVGNESTTLGYYNGKLEPLGSYRACVAGFTNITFHPQNKGLIDGAESYVSFSRYSDAVSLPQDPGVICGAVFGCIFGALVIVTVGGFIFWRKKRKDAKNNEVSFSQIKPKKSKLIRVENFEAYFKKQQADSNCGFAEEYEDLKLVGISQPKYAAELAENRGKNRYNNVLPYDISRVKLSVQTHSTDDYINANYMPGYHSKKDFIATQGPLPNTLKDFWRMVWEKNVYAIIMLTKCVEQGRTKCEEYWPSKQAQDYGDITVAMTSEIVLPEWTIRDFTVKNIQTSESHPLRQFHFTSWPDHGVPDTTDLLINFRYLVRDYMKQSPPESPILVHCSAGVGRTGTFIAIDRLIYQIENENTVDVYGIVYDLRMHRPLMVQTEDQYVFLNQCVLDIVRSQKDSKVDLIYQNTTAMTIYENLAPVTTFGKTNGYIA
B3: CD132 (protein, UniProt P31785 23-369, looked up)
Cytokine receptor common …: LNTTILTPNGNEDTTADFFLTTMPTDSLSVSTLPLPEVQCFVFNVEYMNCTWNSSSEPQPTNLTLHYWYKNSDNDKVQKCSHYLFSEEITSGCQLQKKEIHLYQTFVVQLQDPREPRRQATQMLKLQNLVIPWAPENLTLHKLSESQLELNWNNRFLNHCLEHLVQYRTDWDHSWTEQSVDYRHKFSLPSVDGQKRYTFRVRSRFNPLCGSAQHWSEWSHPIHWGSNTSKENPFLFALEAVVISVGSMGLIISLLCVYFWLERTMPRIPTLKNLEDLVTEYHGNFSAWSGVSKGLAESLQPDYSERLCLVSEIPPKGGALGEGPGASPCNQHSPYWAPPCYTLKPET
B4: CX3CR1 (protein, UniProt P49238 1-355, looked up)
CX3C chemokine receptor 1: MDQFPESVTENFEYDDLAEACYIGDIVVFGTVFLSIFYSVIFAIGLVGNLLVVFALTNSKKPKSVTDIYLLNLALSDLLFVATLPFWTHYLINEKGLHNAMCKFTTAFFFIGFFGSIFFITVISIDRYLAIVLAANSMNNRTVQHGVTISLGVWAAAILVAAPQFMFTKQKENECLGDYPEVLQEIWPVLRNVETNFLGFLLPLLIMSYCYFRIIQTLFSCKNHKKAKAIKLILLVVIVFFLFWTPYNVMIFLETLKLYDFFPSCDMRKDLRLALSVTETVAFSHCCLNPLIYAFAGEKFRRYLYHLYGKCLAVLCGRSVHVDFSSSESQRSRHGSVLSSNFTYHTSDGDALLLL
B5: CD294 (protein, UniProt Q9Y5Y4 1-395, looked up)
Prostaglandin D2 receptor 2: MSANATLKPLCPILEQMSRLQSHSNTSIRYIDHAAVLLHGLASLLGLVENGVILFVVGCRMRQTVVTTWVLHLALSDLLASASLPFFTYFLAVGHSWELGTTFCKLHSSIFFLNMFASGFLLSAISLDRCLQVVRPVWAQNHRTVAAAHKVCLVLWALAVLNTVPYFVFRDTISRLDGRIMCYYNVLLLNPGPDRDATCNSRQVALAVSKFLLAFLVPLAIIASSHAAVSLRLQHRGRRRPGRFVRLVAAVVAAFALCWGPYHVFSLLEARAHANPGLRPLVWRGLPFVTSLAFFNSVANPVLYVLTCPDMLRKLRRSLRTVLESVLVDDSELGGAGSSRRRRTSSTARSASPLALCSRPEEPRGPARLLGWLLGSCAASPQTGPLNRALSSTSS
B6: XCR1 (protein, UniProt P46094 1-333, looked up)
Chemokine XC receptor 1: MESSGNPESTTFFYYDLQSQPCENQAWVFATLATTVLYCLVFLLSLVGNSLVLWVLVKYESLESLTNIFILNLCLSDLVFACLLPVWISPYHWGWVLGDFLCKLLNMIFSISLYSSIFFLTIMTIHRYLSVVSPLSTLRVPTLRCRVLVTMAVWVASILSSILDTIFHKVLSSGCDYSELTWYLTSVYQHNLFFLLSLGIILFCYVEILRTLFRSRSKRRHRTVKLIFAIVVAYFLSWGPYNFTLFLQTLFRTQIIRSCEAKQQLEYALLICRNLAFSHCCFNPVLYVFVGVKFRTHLKHVLRQFWFCRLQAPSPASIPHSPGAFAYEGASFY
B7: CD143 (protein, UniProt P12821 30-1306, looked up)
Angiotensin-converting enzyme: LDPGLQPGNFSADEAGAQLFAQSYNSSAEQVLFQSVAASWAHDTNITAENARRQEEAALLSQEFAEAWGQKAKELYEPIWQNFTDPQLRRIIGAVRTLGSANLPLAKRQQYNALLSNMSRIYSTAKVCLPNKTATCWSLDPDLTNILASSRSYAMLLFAWEGWHNAAGIPLKPLYEDFTALSNEAYKQDGFTDTGAYWRSWYNSPTFEDDLEHLYQQLEPLYLNLHAFVRRALHRRYGDRYINLRGPIPAHLLGDMWAQSWENIYDMVVPFPDKPNLDVTSTMLQQGWNATHMFRVAEEFFTSLELSPMPPEFWEGSMLEKPADGREVVCHASAWDFYNRKDFRIKQCTRVTMDQLSTVHHEMGHIQYYLQYKDLPVSLRRGANPGFHEAIGDVLALSVSTPEHLHKIGLLDRVTNDTESDINYLLKMALEKIAFLPFGYLVDQWRWGVFSGRTPPSRYNFDWWYLRTKYQGICPPVTRNETHFDAGAKFHVPNVTPYIRYFVSFVLQFQFHEALCKEAGYEGPLHQCDIYRSTKAGAKLRKVLQAGSSRPWQEVLKDMVGLDALDAQPLLKYFQPVTQWLQEQNQQNGEVLGWPEYQWHPPLPDNYPEGIDLVTDEAEASKFVEEYDRTSQVVWNEYAEANWNYNTNITTETSKILLQKNMQIANHTLKYGTQARKFDVNQLQNTTIKRIIKKVQDLERAALPAQELEEYNKILLDMETTYSVATVCHPNGSCLQLEPDLTNVMATSRKYEDLLWAWEGWRDKAGRAILQFYPKYVELINQAARLNGYVDAGDSWRSMYETPSLEQDLERLFQELQPLYLNLHAYVRRALHRHYGAQHINLEGPIPAHLLGNMWAQTWSNIYDLVVPFPSAPSMDTTEAMLKQGWTPRRMFKEADDFFTSLGLLPVPPEFWNKSMLEKPTDGREVVCHASAWDFYNGKDFRIKQCTTVNLEDLVVAHHEMGHIQYFMQYKDLPVALREGANPGFHEAIGDVLALSVSTPKHLHSLNLLSSEGGSDEHDINFLMKMALDKIAFIPFSYLVDQWRWRVFDGSITKENYNQEWWSLRLKYQGLCPPVPRTQGDFDPGAKFHIPSSVPYIRYFVSFIIQFQFHEALCQAAGHTGPLHKCDIYQSKEAGQRLATAMKLGFSRPWPEAMQLITGQPNMSASAMLSYFKPLLDWLRTENELHGEKLGWPQYNWTPNSARSEGPLPDSGRVSFLGLDLDAQQARVGQWLLLFLGIALLVATLGLSQRLFSIRHRSLHRHSHGPQFGSEVELRHS
B8: CD134 (protein, UniProt P43489 29-277, looked up)
Tumor necrosis factor …: LHCVGDTYPSNDRCCHECRPGNGMVSRCSRSQNTVCRPCGPGFYNDVVSSKPCKPCTWCNLRSGSERKQLCTATQDTVCRCRAGTQPLDSYKPGVDCAPCPPGHFSPGDNQACKPWTNCTLAGKHTLQPASNSSDAICEDRDPPATQPQETQGPPARPITVQPTEAWPRTSQGPSTRPVEVPGGRAVAAILGLGLVLGLLGPLAILLALYLLRRDQRLPPDAHKPPGGGSFRTPIQEEQADAHSTLAKI

system: undifferentiated hPSC (D0); assay: High-throughput cell-surface marker screening (LEGENDScreen), %PE+; type: cell-based, human; settings: percentage of cells bound to the PE-conjugated antibody (LEGENDScreen)

| Molecule | % PE+ in H1 UD |
| --- | --- |
| B1 | 0.16% |
| B2 | 99.7% |
| B3 | 1.07% |
| B4 | 0.2% |
| B5 | 0.3% |
| B6 | 0.3% |
| B7 | 25% |
| B8 | 0.35% |

system: D3.5 SOX17-GFP+ PGCs; assay: as above; type: cell-based, human; settings: percentage of cells bound to the PE-conjugated antibody (LEGENDScreen)

| Molecule | % PE+ in PGCs |
| --- | --- |
| B1 | 0% |
| B2 | 0.5294% |
| B3 | 0.007812% |
| B4 | 0% |
| B5 | 0.4746% |
| B6 | 0% |
| B7 | 0.2429% |
| B8 | 0% |

system: D3.5 SOX17-GFP- non-PGCs; assay: as above; type: cell-based, human; settings: percentage of cells bound to the PE-conjugated antibody (LEGENDScreen)

| Molecule | % PE+ in non-PGCs |
| --- | --- |
| B1 | 0.0001418% |
| B2 | 0.2763% |
| B3 | 0.008005% |
| B4 | 0.0001112% |
| B5 | 0.02205% |
| B6 | 0.0005968% |
| B7 | 0.09792% |
| B8 | 0.0001114% |
